Measurements as given in paper doi:10.1101/490615.
Results are given in words; binding and its absence hold for the method and conditions named. Binding seen in cells or lysates may run through a third protein. Some binding calls cover weakened binding; strength is not graded here. Sequences can lack the tags named with a protein.

Target: T1, GFP-Klp10A (Drosophila) (UniProt Q960Z0)
T1 sequence: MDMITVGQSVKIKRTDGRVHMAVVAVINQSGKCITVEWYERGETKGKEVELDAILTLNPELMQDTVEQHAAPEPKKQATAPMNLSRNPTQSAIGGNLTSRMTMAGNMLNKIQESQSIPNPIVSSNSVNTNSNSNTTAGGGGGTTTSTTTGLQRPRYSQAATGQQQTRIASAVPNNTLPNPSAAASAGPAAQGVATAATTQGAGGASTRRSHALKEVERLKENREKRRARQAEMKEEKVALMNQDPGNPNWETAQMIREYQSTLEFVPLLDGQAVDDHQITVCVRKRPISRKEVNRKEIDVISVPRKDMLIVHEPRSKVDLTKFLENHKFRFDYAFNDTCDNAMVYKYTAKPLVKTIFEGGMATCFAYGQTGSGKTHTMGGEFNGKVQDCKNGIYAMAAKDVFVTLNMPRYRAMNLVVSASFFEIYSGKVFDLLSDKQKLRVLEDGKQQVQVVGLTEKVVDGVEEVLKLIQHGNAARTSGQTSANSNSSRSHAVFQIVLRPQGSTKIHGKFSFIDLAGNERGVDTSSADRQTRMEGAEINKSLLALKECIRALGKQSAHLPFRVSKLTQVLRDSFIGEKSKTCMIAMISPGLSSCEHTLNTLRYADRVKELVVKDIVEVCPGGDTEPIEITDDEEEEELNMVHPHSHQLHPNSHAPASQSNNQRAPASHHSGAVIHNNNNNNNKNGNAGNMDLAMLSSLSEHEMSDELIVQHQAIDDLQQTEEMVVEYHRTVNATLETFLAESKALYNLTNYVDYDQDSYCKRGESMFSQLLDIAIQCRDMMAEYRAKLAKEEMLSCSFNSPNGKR
Assay: co-IP

binding: binds
B1: Alms1a (protein, UniProt Q5BI31 1-1322)
chain: MRAKRGAVGKVMMSGSRHNKLAESSRVPPLAREYISAMATDRELDRFMALSSTASSGASGSTHSCALGSVPPPGCASMEHESRPESGHRRRTKSSDHRSPDERGEAKEQLRELSVSPPPSKHKISQFTSPKSEVTKTKPNEYTIIPIVLASSPSFRSVAVTQTMSQSAEDIRTPTKSPQMQNKKTQTPESVLKSHKRLEWDPSADVGYCKRAMSMSNISTLERSVLEDCSWRQPTQQRPEANLDGVQPLLAEEPSPMLDKPTPPLACSTFVNRSERTKSLNSGMESSLSSNKGDPRKKCQRKSRRQDSEVSSCQTDCRSSSQKESTQGSSEAKDIRGNFTTEGTQCSYNRNDTEIDSIMEEEESIDRRKKDDLRISSRVQDPQISSRRPSVSSSRRESLSSYRRDDSRLNSPNSSRLGSEVSSRVESSRSSSRRESQTNSVYGSLSASSFDYHMHMAQEVEVLKHNQRRQQEMEVEPKKQLEKEQHQNDMQQGEPKGRELKDKNHHSGREQQEIQPLMRDQRKAEQRHEKDHQLEREQQGIQQLSKGQRKAKKREKEREQERQYTAAQFEKIRSNRRHVNKENQKPENPVVNPSTGVTASTSTTSLDVGSGSRPGGELDLGIDLLCSLVKSRSLSQGQKKKLVRDIARRISCLELTESSTSSRSLSSSSKEQLKVPTGSLQQVAATNTNQSNARSSSKAERIAPPVPAPRKRAAIGSSSPLPESVSYSGSTSGSGEVITQKTNIPNRNASTDADIEPLDLQDWLNPMTLSEIEFEERLKGGTDSERRRQLHWVKTEINRMQEFKNLLENISLPSKSQKKANTESATAAQIPSSMRCMGDQKERPDKEYLLRQEMSAEAESKEMENSETTTTPPPPVRIESVGVNVTNSDPSTLPAPPPTQPPPPPPHLNQRNLQNRKKMATPLLVSGSSTSGGGRSESVCSFVQQRQRQFREHYQNQQQQQFVLLQQQKLYQLQKQLNQQKDILIQRQQHCGQCAQCGHQRTCIHQQNCPRRQQEAEEQPDEREQYMQMQYAQAAGSAYATPHQSGSSGADKNEAIYYQVVNSQGVASYVQATMVSTETQNEASATGGAGGSAITRSTTTTTNSSSSMMCISSDMSVPMGMMNTCETTTTTTTHQYDDVACQRVRRGHKETTMNAESMQRQTLQVRPRAISYVIQFTPTGSSEVIEKPPSLQDQLQLARPEFCANAKQRKAILNEMQMIRNARRQELDNVLSQSTSMEALNRHLEQLPPPANTRVRLFTTREMKAITSKRCKNLPEVLAAQSRQEEEQRRRSNRLMRDVFNKRLKSRVASGQISLNHSMAIM
